No constants are given. Whether binding was seen depends on the method and setting. Binding seen in cells or lysates may run through a third protein. Some binding calls cover weakened binding; strength is not graded here.
Legend:
[1] = biological target: NF-κB subunit p65/RelA (human (endogenous in PaTu2 and BxPC3)) (UniProt Q04206); assay: co-IP; immunoprecipitation of endogenous p65 from lysates of PaTu2 and BxPC3 cells; blot for PKM2, reprobed for p65; IP lysis buffer 10 mM Tris-HCl, 5 mM EDTA, 50 mM NaCl, 50 mM NaF, 1 % Triton X100; 2 μg antibody and Protein G-Sepharose
[2] = biological target: M2 isoform of pyruvate kinase (PKM2) (human (endogenous in PaTu2 and BxPC3)) (UniProt P14618); assay: co-IP; immunoprecipitation of endogenous PKM2 from lysates of PaTu2 cells cultivated in normoxia or hypoxia; blot for HIF-1α and PKM2; IP lysis buffer 10 mM Tris-HCl, 5 mM EDTA, 50 mM NaCl, 50 mM NaF, 1 % Triton X100; 2 μg antibody and Protein G-Sepharose

By UniProt entry, the sequences of proteins in these tests, tags left out.
UniProt Q04206: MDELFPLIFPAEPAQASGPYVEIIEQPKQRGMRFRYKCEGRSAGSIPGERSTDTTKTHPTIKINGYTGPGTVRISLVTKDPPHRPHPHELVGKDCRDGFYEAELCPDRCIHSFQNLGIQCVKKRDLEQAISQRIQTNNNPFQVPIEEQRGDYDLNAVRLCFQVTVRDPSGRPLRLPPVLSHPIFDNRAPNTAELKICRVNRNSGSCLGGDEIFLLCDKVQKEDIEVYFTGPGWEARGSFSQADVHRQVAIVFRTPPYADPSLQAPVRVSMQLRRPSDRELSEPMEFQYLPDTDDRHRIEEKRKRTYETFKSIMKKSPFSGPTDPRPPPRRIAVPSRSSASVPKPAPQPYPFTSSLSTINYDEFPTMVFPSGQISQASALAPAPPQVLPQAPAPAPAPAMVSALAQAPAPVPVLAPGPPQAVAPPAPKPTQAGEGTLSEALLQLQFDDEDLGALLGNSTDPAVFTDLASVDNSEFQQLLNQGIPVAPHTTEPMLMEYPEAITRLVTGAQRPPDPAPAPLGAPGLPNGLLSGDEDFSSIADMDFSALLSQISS
UniProt P14618: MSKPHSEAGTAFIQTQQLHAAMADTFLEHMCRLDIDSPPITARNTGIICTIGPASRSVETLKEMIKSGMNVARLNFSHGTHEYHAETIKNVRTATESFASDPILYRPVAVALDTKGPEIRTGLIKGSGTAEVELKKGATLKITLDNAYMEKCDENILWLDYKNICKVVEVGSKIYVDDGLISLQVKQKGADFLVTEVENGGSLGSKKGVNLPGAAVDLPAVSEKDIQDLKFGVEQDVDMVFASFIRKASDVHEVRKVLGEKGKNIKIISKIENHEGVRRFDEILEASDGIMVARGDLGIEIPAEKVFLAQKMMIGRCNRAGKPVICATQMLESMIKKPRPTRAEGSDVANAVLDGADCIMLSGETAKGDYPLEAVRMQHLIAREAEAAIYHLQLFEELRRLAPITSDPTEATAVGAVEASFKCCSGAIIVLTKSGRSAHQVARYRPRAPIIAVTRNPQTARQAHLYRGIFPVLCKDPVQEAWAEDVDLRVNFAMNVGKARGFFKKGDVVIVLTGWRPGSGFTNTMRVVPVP
UniProt Q16665: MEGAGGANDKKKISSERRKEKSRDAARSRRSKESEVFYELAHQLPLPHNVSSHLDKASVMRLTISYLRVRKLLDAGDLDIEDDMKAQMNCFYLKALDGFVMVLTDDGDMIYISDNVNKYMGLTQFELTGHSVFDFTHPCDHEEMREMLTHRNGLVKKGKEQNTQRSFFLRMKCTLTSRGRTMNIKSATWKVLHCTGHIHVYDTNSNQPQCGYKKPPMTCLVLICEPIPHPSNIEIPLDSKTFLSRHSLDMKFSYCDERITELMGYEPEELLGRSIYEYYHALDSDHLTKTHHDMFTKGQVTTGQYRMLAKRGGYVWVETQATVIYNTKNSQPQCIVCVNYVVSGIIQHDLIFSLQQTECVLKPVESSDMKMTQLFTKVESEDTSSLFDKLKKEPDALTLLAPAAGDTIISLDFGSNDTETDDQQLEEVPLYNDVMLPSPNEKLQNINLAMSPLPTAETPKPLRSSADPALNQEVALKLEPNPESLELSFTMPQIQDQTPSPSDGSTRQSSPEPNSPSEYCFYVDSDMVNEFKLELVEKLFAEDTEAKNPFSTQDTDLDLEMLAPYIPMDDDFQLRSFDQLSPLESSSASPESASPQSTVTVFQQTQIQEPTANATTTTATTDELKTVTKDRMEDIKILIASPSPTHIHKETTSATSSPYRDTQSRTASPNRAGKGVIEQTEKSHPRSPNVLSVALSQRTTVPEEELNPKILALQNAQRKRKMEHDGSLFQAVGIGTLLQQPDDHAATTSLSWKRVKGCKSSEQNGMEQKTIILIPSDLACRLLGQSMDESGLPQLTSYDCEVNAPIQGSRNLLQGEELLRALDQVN

“M2 isoform of pyruvate kinase (PKM2) (from UniProt P14618 1-531)” was tested, and the binding [1] was “binds”.
For “hypoxia-inducible factor alpha (HIF-1α) (from UniProt Q16665 1-826)”, the binding [2] was “binds”.

— PMC4704385
